# Results as given in the supplement of paper PMC12067093, “Discovery and optimisation of a covalent ligand for TRIM25 and its application to targeted protein ubiquitination” (Chemical Science, 2025).
# The chains behind the UniProt entries cited, without tags or fusion partners. Where a name states a change or a piece, a line headed by the entry shows the natural chain unless it says otherwise.
# UniProt Q92900: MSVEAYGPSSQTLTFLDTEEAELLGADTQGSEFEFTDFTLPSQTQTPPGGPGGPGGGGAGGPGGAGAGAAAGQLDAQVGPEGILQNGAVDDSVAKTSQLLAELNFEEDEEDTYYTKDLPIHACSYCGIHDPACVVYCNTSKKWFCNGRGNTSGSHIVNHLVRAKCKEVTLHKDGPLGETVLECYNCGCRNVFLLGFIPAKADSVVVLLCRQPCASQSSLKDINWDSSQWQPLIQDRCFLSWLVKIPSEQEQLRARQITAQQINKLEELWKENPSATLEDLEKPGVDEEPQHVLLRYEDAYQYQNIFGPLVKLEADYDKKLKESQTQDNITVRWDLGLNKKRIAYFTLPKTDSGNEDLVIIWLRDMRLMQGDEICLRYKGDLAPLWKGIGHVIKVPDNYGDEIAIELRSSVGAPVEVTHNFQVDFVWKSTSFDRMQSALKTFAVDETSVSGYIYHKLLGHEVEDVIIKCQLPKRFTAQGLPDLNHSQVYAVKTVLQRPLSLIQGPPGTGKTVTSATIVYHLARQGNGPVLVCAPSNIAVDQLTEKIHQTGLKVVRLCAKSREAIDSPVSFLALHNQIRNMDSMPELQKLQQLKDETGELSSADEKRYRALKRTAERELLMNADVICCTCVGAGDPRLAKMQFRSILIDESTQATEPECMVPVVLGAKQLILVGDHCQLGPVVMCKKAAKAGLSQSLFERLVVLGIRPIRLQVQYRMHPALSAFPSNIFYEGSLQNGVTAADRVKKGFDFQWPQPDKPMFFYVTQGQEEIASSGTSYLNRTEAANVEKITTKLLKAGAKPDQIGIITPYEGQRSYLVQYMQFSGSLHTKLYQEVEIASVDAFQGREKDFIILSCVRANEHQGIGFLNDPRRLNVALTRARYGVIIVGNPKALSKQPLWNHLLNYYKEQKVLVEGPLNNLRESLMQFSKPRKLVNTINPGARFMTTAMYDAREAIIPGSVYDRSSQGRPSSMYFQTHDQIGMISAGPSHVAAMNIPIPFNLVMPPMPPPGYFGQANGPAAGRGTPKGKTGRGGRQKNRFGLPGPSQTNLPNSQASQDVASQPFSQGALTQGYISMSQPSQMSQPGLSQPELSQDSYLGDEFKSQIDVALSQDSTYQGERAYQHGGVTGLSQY
# UniProt Q93009, whole entry, looked up: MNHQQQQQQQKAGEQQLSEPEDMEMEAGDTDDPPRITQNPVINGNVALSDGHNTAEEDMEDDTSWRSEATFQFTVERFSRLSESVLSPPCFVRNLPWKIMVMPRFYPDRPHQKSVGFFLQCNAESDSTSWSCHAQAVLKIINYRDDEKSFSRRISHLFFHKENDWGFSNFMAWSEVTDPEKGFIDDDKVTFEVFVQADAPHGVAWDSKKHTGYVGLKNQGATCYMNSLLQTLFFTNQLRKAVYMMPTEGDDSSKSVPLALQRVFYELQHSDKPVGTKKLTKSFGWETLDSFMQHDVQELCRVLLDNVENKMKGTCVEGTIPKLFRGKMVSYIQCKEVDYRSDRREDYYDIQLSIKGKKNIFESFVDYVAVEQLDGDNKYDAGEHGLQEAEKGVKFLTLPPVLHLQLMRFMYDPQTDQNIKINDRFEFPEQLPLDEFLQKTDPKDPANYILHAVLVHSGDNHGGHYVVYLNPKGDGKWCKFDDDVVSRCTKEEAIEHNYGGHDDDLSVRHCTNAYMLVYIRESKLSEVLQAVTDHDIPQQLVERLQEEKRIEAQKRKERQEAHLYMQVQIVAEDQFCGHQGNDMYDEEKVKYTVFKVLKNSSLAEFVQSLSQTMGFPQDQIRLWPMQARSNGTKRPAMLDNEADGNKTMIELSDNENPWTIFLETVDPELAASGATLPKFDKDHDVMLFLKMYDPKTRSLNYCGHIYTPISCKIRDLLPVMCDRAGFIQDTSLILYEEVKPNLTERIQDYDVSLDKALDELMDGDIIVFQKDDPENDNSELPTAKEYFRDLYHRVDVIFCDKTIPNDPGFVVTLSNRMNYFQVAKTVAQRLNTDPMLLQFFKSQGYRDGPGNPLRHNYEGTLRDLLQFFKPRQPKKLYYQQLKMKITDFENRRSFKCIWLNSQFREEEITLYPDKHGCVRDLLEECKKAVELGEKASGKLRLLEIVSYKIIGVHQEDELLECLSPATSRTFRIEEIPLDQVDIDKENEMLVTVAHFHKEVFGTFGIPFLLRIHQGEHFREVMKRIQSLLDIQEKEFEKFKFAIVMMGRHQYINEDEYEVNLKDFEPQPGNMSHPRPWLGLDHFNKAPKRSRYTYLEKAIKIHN
# UniProt Q9Y5K5, whole entry, looked up: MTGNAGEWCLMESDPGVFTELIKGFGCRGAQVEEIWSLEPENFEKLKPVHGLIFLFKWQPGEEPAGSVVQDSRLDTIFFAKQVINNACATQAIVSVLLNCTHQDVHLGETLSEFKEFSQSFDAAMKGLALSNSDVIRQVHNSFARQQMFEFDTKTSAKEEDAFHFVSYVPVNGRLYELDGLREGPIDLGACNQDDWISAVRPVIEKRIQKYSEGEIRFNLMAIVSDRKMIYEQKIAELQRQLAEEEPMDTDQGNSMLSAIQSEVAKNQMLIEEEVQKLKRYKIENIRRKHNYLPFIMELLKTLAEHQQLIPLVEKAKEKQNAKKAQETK
# UniProt O95071: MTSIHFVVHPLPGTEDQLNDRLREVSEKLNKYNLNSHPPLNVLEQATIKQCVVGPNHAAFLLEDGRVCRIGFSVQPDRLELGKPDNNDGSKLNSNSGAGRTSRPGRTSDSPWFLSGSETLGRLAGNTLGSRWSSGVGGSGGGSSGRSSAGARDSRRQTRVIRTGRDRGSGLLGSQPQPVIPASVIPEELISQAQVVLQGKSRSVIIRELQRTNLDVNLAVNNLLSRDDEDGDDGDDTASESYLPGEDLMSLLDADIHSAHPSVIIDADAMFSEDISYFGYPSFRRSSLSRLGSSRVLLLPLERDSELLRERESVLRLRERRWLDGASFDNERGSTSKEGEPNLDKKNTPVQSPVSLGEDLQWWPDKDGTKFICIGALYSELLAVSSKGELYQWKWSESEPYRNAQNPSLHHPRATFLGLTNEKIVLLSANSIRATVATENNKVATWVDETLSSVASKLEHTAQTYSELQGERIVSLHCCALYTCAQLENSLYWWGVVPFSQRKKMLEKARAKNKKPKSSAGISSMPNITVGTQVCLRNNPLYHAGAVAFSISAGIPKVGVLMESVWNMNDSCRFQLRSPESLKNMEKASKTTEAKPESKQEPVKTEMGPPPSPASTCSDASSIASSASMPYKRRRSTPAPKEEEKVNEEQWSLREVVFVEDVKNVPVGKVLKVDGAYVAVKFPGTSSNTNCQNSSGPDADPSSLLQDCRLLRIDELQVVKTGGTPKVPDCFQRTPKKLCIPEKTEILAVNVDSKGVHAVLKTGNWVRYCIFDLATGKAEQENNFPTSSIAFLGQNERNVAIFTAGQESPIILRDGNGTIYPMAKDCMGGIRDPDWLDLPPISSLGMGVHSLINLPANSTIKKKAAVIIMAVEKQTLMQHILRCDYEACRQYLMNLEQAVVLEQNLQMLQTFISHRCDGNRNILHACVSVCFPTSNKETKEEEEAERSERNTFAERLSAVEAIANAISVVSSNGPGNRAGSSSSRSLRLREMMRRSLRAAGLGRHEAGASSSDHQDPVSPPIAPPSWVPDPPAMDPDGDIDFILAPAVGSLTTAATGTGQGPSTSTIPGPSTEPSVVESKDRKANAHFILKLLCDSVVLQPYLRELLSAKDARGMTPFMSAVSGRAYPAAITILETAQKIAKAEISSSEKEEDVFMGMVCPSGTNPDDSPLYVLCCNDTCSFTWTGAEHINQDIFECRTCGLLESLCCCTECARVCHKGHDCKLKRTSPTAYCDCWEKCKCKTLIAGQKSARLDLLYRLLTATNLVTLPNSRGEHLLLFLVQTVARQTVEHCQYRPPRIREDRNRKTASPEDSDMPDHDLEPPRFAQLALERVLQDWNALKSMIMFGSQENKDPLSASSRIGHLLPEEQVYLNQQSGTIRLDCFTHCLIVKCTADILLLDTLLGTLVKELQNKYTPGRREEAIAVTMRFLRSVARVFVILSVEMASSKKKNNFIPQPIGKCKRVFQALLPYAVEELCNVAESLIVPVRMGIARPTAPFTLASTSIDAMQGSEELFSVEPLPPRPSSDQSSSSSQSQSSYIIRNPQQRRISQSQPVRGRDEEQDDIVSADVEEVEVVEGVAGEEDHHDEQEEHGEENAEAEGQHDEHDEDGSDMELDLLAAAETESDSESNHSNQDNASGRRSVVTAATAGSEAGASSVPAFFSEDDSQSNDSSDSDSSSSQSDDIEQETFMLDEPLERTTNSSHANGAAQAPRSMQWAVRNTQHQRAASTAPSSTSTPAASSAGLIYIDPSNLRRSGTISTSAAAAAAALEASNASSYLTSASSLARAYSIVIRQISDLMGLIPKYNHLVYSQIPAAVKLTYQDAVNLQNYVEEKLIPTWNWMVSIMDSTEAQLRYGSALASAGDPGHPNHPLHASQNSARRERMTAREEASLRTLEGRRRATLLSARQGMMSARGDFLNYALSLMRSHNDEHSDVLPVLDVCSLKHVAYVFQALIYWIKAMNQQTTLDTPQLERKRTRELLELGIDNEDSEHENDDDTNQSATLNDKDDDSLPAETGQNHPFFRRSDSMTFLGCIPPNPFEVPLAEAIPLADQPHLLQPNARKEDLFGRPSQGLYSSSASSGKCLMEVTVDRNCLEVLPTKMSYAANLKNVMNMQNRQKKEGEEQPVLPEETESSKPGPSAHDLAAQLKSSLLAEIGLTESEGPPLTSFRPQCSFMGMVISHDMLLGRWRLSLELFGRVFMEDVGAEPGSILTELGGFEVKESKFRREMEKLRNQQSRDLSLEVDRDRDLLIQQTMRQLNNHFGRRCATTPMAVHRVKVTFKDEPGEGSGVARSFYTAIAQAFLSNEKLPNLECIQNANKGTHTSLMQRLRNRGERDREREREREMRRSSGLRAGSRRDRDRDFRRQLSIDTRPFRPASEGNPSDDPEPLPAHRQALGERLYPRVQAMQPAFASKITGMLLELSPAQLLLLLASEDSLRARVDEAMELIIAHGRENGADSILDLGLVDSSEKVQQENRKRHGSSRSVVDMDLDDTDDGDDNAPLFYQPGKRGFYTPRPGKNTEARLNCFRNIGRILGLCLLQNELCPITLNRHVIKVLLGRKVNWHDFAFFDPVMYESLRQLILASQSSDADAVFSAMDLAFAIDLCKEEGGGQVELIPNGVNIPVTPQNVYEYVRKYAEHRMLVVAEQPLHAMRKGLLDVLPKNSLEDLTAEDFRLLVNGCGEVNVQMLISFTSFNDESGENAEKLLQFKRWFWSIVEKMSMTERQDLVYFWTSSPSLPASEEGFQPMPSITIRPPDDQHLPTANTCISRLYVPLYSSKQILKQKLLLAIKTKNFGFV
# UniProt Q8WUN7: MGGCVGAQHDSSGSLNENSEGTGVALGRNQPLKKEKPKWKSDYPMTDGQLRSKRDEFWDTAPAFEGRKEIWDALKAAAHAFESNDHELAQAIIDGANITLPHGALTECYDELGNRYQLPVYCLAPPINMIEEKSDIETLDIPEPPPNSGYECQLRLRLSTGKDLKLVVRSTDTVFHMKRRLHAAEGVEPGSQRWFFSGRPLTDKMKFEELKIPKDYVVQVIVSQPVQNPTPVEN
# The other results are listed elsewhere or left out.
# Compound: CC1Cc2ccccc2N1C(=O)C1CCCN(C1)C(=O)CCl (mixture of isomers) [TRIM25 ligand 11 (diastereomer mixture)]
# Test: probe-labelled cysteine peptide fold change vs DMSO (competition) (log2 fold change); higher = less target engagement (more negative = stronger competition)
# Details: THP-1, incubation time: 4 h
# 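Also: competitive chemoproteomic profiling in live THP-1 cells with an iodoacetamide desthiobiotin (IA-DTB) probe, comparing probe-labelled peptide intensities in compound-treated cells against DMSO-treated controls.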
Target,probe-labelled cysteine peptide fold change (10 µM),probe-labelled cysteine peptide fold change (50 µM)
UPF1_Q92900_852_DFIILSCVR (UniProt Q92900),0.0988,0.132
USP19_O94966_1017_LEDKGDTPLELGDDCSLALVWR (UniProt O94966),-0.14,-0.0111
USP7_Q93009_300_SFGWETLDSFMQHDVQELCR (UniProt Q93009),-0.086,-0.0053
UCHL5_Q9Y5K5_191_EGPIDLGACNQDDWISAVRPVIEK (UniProt Q9Y5K5),0.0268,0.0477
UBR5_O95071_691_FPGTSSNTNCQNSSGPDADPSSLLQDCR (UniProt O95071),-0.0989,0.165
UQCRC1_P31930_380_LCTSATESEVAR (UniProt P31930),0.124,0.109
UCKL1_Q9NWZ5_35_SETACEDR (UniProt Q9NWZ5),0.063,-0.117
USP20_Q9Y2K6_393_SSSRPCSPVHHHEGHAK (UniProt Q9Y2K6),0.149,-0.242
USP6_P35125_1237_ENGAGQICELADALSR (UniProt P35125),-0.192,-0.199
USP10_Q14694_456_VQRPCTSTPMIDSFVR (UniProt Q14694),0.067,0.119
UGGT1_Q9NYU2_880_MDFILSHAVYCR (UniProt Q9NYU2),0.288,0.305
UBR5_O95071_883_CDYEACR (UniProt O95071),0.0209,0.0883
UPF1_Q92900_675+683_QLILVGDHCQLGPVVMCK (UniProt Q92900),-0.154,-0.207
UBTD2_Q8WUN7_122_YQLPVYCLAPPINMIEEK (UniProt Q8WUN7),-0.0496,-0.00366

# Full records, quoted from the list.
# USP20_Q9Y2K6_393_SSSRPCSPVHHHEGHAK (UniProt Q9Y2K6) is entered as probe-labelled cysteine peptide fold change (10 µM): 0.149; probe-labelled cysteine peptide fold change (50 µM): -0.242
# USP7_Q93009_300_SFGWETLDSFMQHDVQELCR (UniProt Q93009) is entered as probe-labelled cysteine peptide fold change (10 µM): -0.086; probe-labelled cysteine peptide fold change (50 µM): -0.0053
